From PubChem BioAssay AID2685 (National Center for Advancing Translational Sciences (NCATS), 2010)
The other results are listed elsewhere or left out. The main result of the screen is listed elsewhere. These columns were measured beside it and carry no call. Compounds called inactive in the main read-out are mostly missing here. Words in brackets tell the shape of the fitted curve; partial curves, single points and poor fits give uncertain potencies.

Test: qHTS Assay for Lipid Storage Modulators in Drosophila S3 Cells;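 on cell number change: cells counted by Cell Tracker Red CMTPX staining in the red channel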
Settings: BODIPY lipid droplet fluorescence, 18-24 h; for cell number change: measured here: cell count max response, cells fed with added oleic acid
Procedure, shortened: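 Drosophila S3 cells loaded with oleic acid (400 uM, as added) and compounds at several concentrations; lipid droplets imaged by 488-nm laser-scanning cytometry, 500–530 nm intensity and object ratio to cell channel. Percent activity normalized to 20 uM Triacsin C.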

[1] = measured here: cell number channel AC50, cells fed with added oleic acid
[2] = measured here: lipid fluorescence (Fed channel) AC50, cells fed with added oleic acid

SMILES	cell number change	AC50 [1]	AC50 [2]
CCOc1ccc(S(=O)(=O)Nc2cc(F)ccc2F)c2cccnc12	10.8%		
Cc1ccc(NC(=O)COC(=O)CCC(=O)c2cccs2)cc1S(=O)(=O)N1CCOCC1	8.64%	0.00517 µM [rising, full curve, poor fit]	
Cc1cc(NC(=O)c2noc3c2CCCC3)nn1Cc1ccc(Cl)cc1	-1.53%	0.092 µM [falling, full curve, poor fit]	23.1 µM [falling, partial curve, poor fit]
COc1ccc(C(C)=O)cc1CSc1nnc(-c2ccc(Cl)cc2)n1-c1ccccc1	5.98%	0.00461 µM [rising, full curve, poor fit]	
Nc1ccc(C(=O)N/N=C\c2ccc(OC(=O)c3ccccc3Cl)cc2)cc1	17.3%	0.731 µM [falling, partial curve, poor fit]	0.184 µM [rising, full curve, poor fit]
CCOc1ccc2nc(Cl)c(C3CC(c4ccccc4)=NN3C(=O)c3cccs3)cc2c1 (stereo not given)	-13.7%		0.58 µM [rising, partial curve, poor fit]
CCN(CC)CCNC(=O)CCc1nnc2ccc(N3CCC(C)CC3)nn12	41%	20.6 µM [rising, single point]	20.6 µM [rising, partial curve, poor fit]
CN(C)c1ncc(S(=O)(=O)c2ccccc2)c(-c2ccc(Cl)cc2Cl)n1	40%	2.31 µM [rising, full curve]	
CSCCC(NC(=O)c1cncc(Br)c1)C(=O)O (stereo not given)	-43.8%	9.2 µM [falling, partial curve, poor fit]	4.11 µM [falling, partial curve, poor fit]
C=CCN1C(c2ccccc2)=CS/C1=C(/C#N)c1nnc(N2CCOCC2)n1-c1ccccc1	6.58%		2.91 µM [rising, partial curve, poor fit]
CCOCCCNS(=O)(=O)c1ccc(NC(=O)c2ccc(OC)c([N+](=O)[O-])c2)cc1		7.31 µM [falling, single point]	
COc1ccc2c(c1)CC[C@@H]1[C@@H]2CC[C@]2(C)C(=O)CC[C@@H]12	34.6%	18.4 µM [rising, partial curve, poor fit]	18.4 µM [rising, partial curve, poor fit]
C/C(=N\Nc1ccccc1[N+](=O)[O-])c1ccc(N2CCOCC2)cc1	-121%	5.8 µM [falling, full curve]	18.4 µM [falling, partial curve]

Exported with bars between the fields: entries from further up
SMILES | cell number change | AC50 [1] | AC50 [2]
Nc1ccc(C(=O)N/N=C\c2ccc(OC(=O)c3ccccc3Cl)cc2)cc1 | 17.3% | 0.731 µM [falling, partial curve, poor fit] | 0.184 µM [rising, full curve, poor fit]
CSCCC(NC(=O)c1cncc(Br)c1)C(=O)O (stereo not given) | -43.8% | 9.2 µM [falling, partial curve, poor fit] | 4.11 µM [falling, partial curve, poor fit]
